The values below come from paper PMC8888591.

Sequences of proteins named here, by UniProt entry; tags and fusion partners are left off.
UniProt Q14457: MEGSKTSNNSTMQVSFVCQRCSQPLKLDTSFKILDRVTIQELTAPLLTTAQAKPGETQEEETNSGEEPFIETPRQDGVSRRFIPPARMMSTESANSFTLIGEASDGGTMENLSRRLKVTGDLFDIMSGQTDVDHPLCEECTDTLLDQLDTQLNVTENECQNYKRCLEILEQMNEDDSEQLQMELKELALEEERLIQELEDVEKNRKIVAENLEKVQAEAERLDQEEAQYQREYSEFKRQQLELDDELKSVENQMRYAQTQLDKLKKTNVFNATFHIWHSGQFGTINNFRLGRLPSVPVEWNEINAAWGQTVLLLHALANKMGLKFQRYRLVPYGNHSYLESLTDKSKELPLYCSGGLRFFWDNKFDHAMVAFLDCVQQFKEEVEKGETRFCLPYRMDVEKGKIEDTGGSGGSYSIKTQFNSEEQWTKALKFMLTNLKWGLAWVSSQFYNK
UniProt P10415: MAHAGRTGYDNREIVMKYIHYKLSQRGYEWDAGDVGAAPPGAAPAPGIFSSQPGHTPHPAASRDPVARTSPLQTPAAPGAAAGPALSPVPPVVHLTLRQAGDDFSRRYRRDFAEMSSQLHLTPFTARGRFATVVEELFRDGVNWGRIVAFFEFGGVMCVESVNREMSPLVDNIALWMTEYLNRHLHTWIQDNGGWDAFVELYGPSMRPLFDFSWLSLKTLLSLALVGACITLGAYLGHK

Results are given in words; binding and its absence hold for the method and conditions named. Binding seen in cells or lysates may run through a third protein. Some entries that bind do so weakly or less than the wild type.

In assay [1] the target is Beclin-1 (human (endogenous in NCI-N87 and MKN-74)) (UniProt Q14457). Description: co-IP; lysates of NCI-N87 and MKN-74 cells in IP buffer (pH 7.5, 50 mM Tris-HCl, 250 mM NaCl, 5 mM EDTA, 0.5% NP-40); anti-Bcl-2 or anti-Beclin-1 at 4 °C for 16 h, protein A/G plus agarose; Western blot; cells untreated or treated with cinnamaldehyde (CA, 50 μg/mL; 0, 16, 24 h), which suppressed the interaction. A general note: In western blotting, separated proteins are transferred to a membrane and probed.

For assay [2], the target named is Bcl-2 (human (endogenous in NCI-N87 and MKN-74)) (UniProt P10415). The description is as above.

Consider Bcl-2 (from UniProt P10415 1-239), for which, in assay [1], the binding entry is “binds”.

Regarding Beclin-1 (from UniProt Q14457 1-450), in assay [2], the binding result was “binds”.
